# Results reported in PubChem BioAssay (Tox21).
# By UniProt entry, the sequences of proteins in these tests, tags left out. Where a name states a change or a piece, a line headed by the entry shows the natural chain unless it says otherwise.
# UniProt P28223, whole entry, looked up: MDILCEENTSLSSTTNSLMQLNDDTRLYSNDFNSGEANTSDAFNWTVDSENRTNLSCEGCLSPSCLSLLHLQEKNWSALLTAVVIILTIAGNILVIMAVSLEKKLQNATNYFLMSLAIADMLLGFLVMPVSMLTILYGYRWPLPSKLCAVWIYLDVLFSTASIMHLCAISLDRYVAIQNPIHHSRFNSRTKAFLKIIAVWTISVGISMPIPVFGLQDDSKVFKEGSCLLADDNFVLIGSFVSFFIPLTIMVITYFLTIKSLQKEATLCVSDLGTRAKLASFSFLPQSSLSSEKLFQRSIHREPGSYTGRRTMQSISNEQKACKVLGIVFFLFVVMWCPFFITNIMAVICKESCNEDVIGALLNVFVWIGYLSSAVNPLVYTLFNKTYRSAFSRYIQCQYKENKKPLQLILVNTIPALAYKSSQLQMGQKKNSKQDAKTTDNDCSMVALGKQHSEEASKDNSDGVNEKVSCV
# UniProt P11229: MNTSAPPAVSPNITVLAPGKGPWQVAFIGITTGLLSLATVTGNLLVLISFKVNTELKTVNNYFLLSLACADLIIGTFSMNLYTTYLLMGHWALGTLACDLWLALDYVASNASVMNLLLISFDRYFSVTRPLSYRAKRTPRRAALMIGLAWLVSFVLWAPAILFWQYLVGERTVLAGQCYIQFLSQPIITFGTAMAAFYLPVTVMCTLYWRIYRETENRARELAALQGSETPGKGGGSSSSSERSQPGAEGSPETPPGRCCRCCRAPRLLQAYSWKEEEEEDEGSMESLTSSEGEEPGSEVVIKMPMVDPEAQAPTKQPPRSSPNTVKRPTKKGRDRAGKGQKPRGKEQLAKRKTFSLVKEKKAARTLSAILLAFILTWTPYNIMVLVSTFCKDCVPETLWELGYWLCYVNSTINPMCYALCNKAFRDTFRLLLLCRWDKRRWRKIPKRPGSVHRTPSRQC
# UniProt P14416, whole entry, looked up: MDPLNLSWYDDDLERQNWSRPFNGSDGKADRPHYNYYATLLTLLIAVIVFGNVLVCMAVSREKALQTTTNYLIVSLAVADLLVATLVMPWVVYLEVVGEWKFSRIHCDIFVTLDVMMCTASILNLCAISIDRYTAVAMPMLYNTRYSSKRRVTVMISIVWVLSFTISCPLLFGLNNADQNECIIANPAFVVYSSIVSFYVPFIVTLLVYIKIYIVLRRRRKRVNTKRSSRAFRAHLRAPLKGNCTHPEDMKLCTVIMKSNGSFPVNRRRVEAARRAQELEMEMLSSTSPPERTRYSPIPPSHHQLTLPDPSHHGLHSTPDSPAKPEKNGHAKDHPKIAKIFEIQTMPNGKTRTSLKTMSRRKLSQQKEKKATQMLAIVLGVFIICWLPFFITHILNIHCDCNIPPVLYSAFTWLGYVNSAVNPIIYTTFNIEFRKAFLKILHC
# Where “and” joins values, the source holds several entries; their conditions need not be identical. Equal entries are not always repeated. The inconclusive results got no clear call from the source; some entries with a clear call stand among them for comparison. For some assays here: Potencies beside an inconclusive call are fits to weak or partial responses and may not hold up. Some structures have more than one record in an assay (separate samples or runs), and their calls can disagree. Calls of active or inactive are those of the source. Unless noted, the call rests on the fitted dose curve.
# How the values were obtained:
# [1] = p53 small molecule agonists, cell-based qHTS assay with human liver microsomes (AID 1963577); details: HCT-116 p53RE-bla with human liver microsomes, ratio, 16 h; activation: at 66 µM (top of the series) unless noted;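 on activation: p53 response element beta-lactamase reporter cells with liver microsomes plus NADPH; on the % scale 0 is the no-effect control and ±100 the full control effect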
# In short: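 p53RE-bla cells; 5 h settle, 37 C/5% CO2; cpd + HLM 0.5 mg/mL + NADPH 0.5 mg/mL (final); 16 h 37 C; LiveBLAzer 2 h RT dark; fluorescence readout.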
# [2] = p53 small molecule agonists, cell-based qHTS assay with rat liver microsomes (AID 1963578); details: HCT-116 p53RE-bla, beta-lactamase ratio, 16 h; activation: at 66 µM (top of the series) unless noted; on activation: on the % scale 0 is the no-effect control and ±100 the full control effect
# In short: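 Rat liver microsome activation: microsomes 0.5 mg/mL, NADPH 0.5 mg/mL final; p53RE-bla cells, 16 h 37 C; LiveBLAzer readout, 2 h RT dark.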
# [3] = p53 small molecule agonists, cell-based qHTS assay with human liver microsomes: qHTS cell viability counter screen (AID 1963579); further: nearly all actives have a fitted effect of over 45% in size
# In short: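 Luminescent CellTiter-Glo read-out, 30 min at room temperature, gauged cytotoxicity in p53RE-bla cells exposed 16 h at 37 C to DMSO-dissolved compounds with metabolic activation by human liver microsomes and NADPH, each 0.5 mg/mL final.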
# [4] = p53 small molecule agonists, cell-based qHTS assay: qHTS cell viability counter screen (AID 1963581); further: nearly all actives have a fitted effect of over 45% in size
# In short: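 Compounds are pinned onto HCT-116 p53RE-bla cells and left 16 h at 37 C. Following the reporter FRET read, ATP is quantified by CellTiter-Glo luminescence after 30 min at room temperature.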
# [5] = p53 small molecule agonists, cell-based qHTS assay (AID 1963582; active means well fitted activation curve with a large enough effect in the signal ratio in the repeat runs, not every such curve was filed as active; inconclusive means weak or mixed curves; the % refers to the signal ratio; on activation: on the % scale 0 is the no-effect control and ±100 the full control effect); details: HCT-116 p53RE-bla reporter, beta-lactamase FRET ratio, 16 h; activation: at 66 µM (top of the series) unless noted
# In short: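 Agonist activity was scored from beta-lactamase FRET fluorescence in p53RE-bla cells treated 16 h at 37 C with compounds in DMSO, substrate incubation being 2 h at room temperature.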
# [6] = molecular target: Beta-2 adrenergic receptor (Homo sapiens) (UniProt P07550); test: Adrenergic beta2 receptor (ADRB2) small molecule agonists, cell-based qHTS assay (AID 1963593); details: CHO-ADRB2 cells, cAMP HTRF, 30 min; activation: at 92.4 µM (top of the series) unless noted;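 on activation: CHO cells stably overexpressing human ADRB2; on the % scale 0 is the no-effect control and ±100 the full control effect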
# In short: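 CHO cells stably over-expressing ADRB2 were plated overnight at 37C, then dosed with compounds plus a stimulation mix containing 100uM IBMX and 25uM Ro-20-1724 for 0.5hr at room temperature. cAMP was measured by HTRF competition, 1hr.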
# [7] = G protein-coupled receptor (GPCR) small molecule agonists, calcium flux assay: HEK293 wild type cell line counter screen (AID 1920065)
# In short: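 In this agonist-mode screen, ATP is the positive control and DMSO the vehicle. Cells grow 18 h before a 1 h dye incubation at 37 C; signal is taken at Ex/Em 480/540 over 3 min.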
# [8] = p53 small molecule agonists, cell-based qHTS assay with rat liver microsomes: qHTS cell viability counter screen (AID 1963580); further: nearly all actives have a fitted effect of over 45% in size
# In short: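 p53RE-bla HCT-116 cells were exposed 16 h at 37 C to compounds with rat liver microsomes (0.5 mg/mL) and NADPH (0.5 mg/mL). Viability was measured in the same wells as ATP content by CellTiter-Glo luminescence.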
# [9] = molecular target: 5-hydroxytryptamine receptor 2A (Homo sapiens) (UniProt P28223); test: 5-hydroxytryptamine receptor 2A (HTR2A) small molecule agonists, cell-based qHTS assay (AID 1963587); details: HTR2A-CHO cells, calcium flux fluorescence, agonist mode; activation: at 76.8 µM (top of the series); further: nearly all actives have a fitted effect of over 30% in size
# In short: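 CHO cells stably expressing human HTR2A, plated 18 h, loaded with calcium dye 1 h at 37 C. Agonist mode: compounds added and intracellular calcium fluorescence recorded kinetically for 2 min at 1 sec intervals.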
# [10] = molecular target: Muscarinic acetylcholine receptor M1 (Homo sapiens) (UniProt P11229); test: Cholinergic receptor muscarinic 1 (CHRM1) small molecule agonists, cell-based qHTS assay (AID 1963589); details: CHRM1-CHO cells, agonist mode, calcium flux fluorescence; activation: at 76.8 µM (top of the series); further: nearly all actives have a fitted effect of over 35% in size
# In short: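 Stable CHRM1-CHO cells (human receptor) were incubated 18 h, dye-loaded for 1 h at 37 C and exposed to test compounds for agonist activity, with calcium-dependent fluorescence followed kinetically.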
# [11] = cAMP Responsive Elements (CRE) small molecule agonists, cell-based qHTS assay (AID 1963590); details: CRE-bla HEK293T, beta-lactamase FRET ratio, 3 h; activation: at 92.4 µM (top of the series) unless noted
# In short: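 FRET-based beta-lactamase readout (LiveBLAzer B/G, 2 h RT) quantified CRE activation in HEK 293T CRE-bla cells after 3 h treatment with DMSO-dissolved compounds.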
# [12] = molecular target: Muscarinic acetylcholine receptor M1 (Homo sapiens) (UniProt P11229); test: Cholinergic receptor muscarinic 1 (CHRM1) small molecule antagonists, cell-based qHTS assay (AID 1963588); further: nearly all actives have a fitted effect of over 40% in size
# In short: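 CHRM1-CHO calcium-flux assay, antagonist mode. Cells were seeded 18 h, dye-loaded 1 h at 37 C and given compound for 5 min at RT, then acetylcholine was added at 50nM. FDSS fluorescence was read 3 min; 15 concentrations, three runs.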
# [13] = cAMP Responsive Elements (CRE) small molecule antagonists, cell-based qHTS assay (AID 1963591; active means well fitted inhibition curve with a large enough effect in the signal ratio in the repeat runs, not every such curve was filed as active; inconclusive means weak or mixed curves, or effect the other way; the % refers to the signal ratio); details: CRE-bla HEK293T, beta-lactamase FRET ratio; activity change, negative = inhibition: at 92.4 µM (top of the series) unless noted
# In short: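 qHTS in CRE-bla HEK 293T cells: compound in DMSO, then 0.25 uM NKH477 (final), 3 h at 37 °C/5% CO2; beta-lactamase FRET read-out after 2 h substrate incubation.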
# [14] = molecular target: Beta-2 adrenergic receptor (Homo sapiens) (UniProt P07550); test: Adrenergic beta2 receptor (ADRB2) small molecule antagonists, cell-based qHTS assay (AID 1963592); details: CHO-ADRB2 cells, isoproterenol-stimulated cAMP HTRF ratio, 0.5 h; activity change, negative = inhibition: at 92.4 µM (top of the series) unless noted; further: nearly all actives have a fitted effect of over 50% in size
# In short: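 Cells (CHO, stable ADRB2 overexpression) incubated 18-20hr at 37C; compounds added from DMSO; agonist mix (1nM isoproterenol, 100uM IBMX, 25uM Ro-20-1724) added; 0.5hr RT; d2-cAMP and anti-cAMP-cryptate added; 1hr RT; 665/615 nm read.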
# [15] = molecular target: D(2) dopamine receptor (Homo sapiens) (UniProt P14416); test: Dopamine D2 receptor (DRD2) small molecule antagonists, cell-based qHTS assay (AID 1963595; active means well fitted inhibition curve with a large enough effect in the signal ratio in the repeat runs, with a control signal flat; inconclusive means weak or mixed curves, or effect the other way; the % refers to the signal ratio); details: HEK293-DRD2 cAMP HTRF antagonist mode; activity change, negative = inhibition: at 92.4 µM (top of the series) unless noted
# In short: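 HEK293 cells stably expressing DRD2, preincubated with 0.1 mM Ro20-1724 and compounds 10 min, were stimulated with 200 nM NKH477 plus 12 nM quinpirole for 30 min at room temperature; cAMP measured by HTRF (665/620 nm).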
# [16] = molecular target: 5-hydroxytryptamine receptor 2A (Homo sapiens) (UniProt P28223); test: 5-hydroxytryptamine receptor 2A (HTR2A) small molecule antagonists, cell-based qHTS assay (AID 1963586); further: nearly all actives have a fitted effect of over 45% in size
# In short: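 Antagonist-mode intracellular calcium assay: DOI (4 nM) added after 5 min compound pre-incubation at room temperature to dye-loaded HTR2A-CHO cells. Fluorescence followed for 3 min, sampled every second.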
# Potency means the concentration at half of the fitted maximal effect.
smiles,measurement,setting,value
CNC(=O)Oc1ccccc1C(C)C,Potency,[1],"inconclusive: 3.24 µM [fluorescent, full curve]"
same,Potency,[2],"inconclusive: 18.2 µM [fluorescent, partial curve]"
CC(C)(OOC(C)(C)c1ccccc1)c1ccccc1,Potency,[1],"inconclusive: 45.8 µM [fluorescent, single point]"
Cc1cc(OC(=O)N(C)C)nn1C(=O)N(C)C,Potency,[1],"inconclusive: 1.02 µM [activator, full curve]"
same,Potency,[2],"inconclusive: 7.25 µM [fluorescent, partial curve]"
same,Potency,[3],inactive
same,Potency,[4],inactive
same,Potency,[5],"inconclusive: 45.8 µM [falling, single point]"
same,activation,[6],inconclusive: -15.9%
COP(=O)(OC)OC,Potency,[7],"inconclusive: 39.2 µM [activator, partial curve, poor fit]"
same,Potency,[8],"inconclusive: 4.61 µM [cytotoxic, single point]"
same,Potency,[5],"inconclusive: 46.1 µM [rising, single point]"
same,Potency,[9],active: 55.4 µM
same,Potency,[10],active: 49.4 µM
same,Potency,[11],"inconclusive: 69.1 µM [rising, single point]"
CC(=O)[O][Pb]([c]1ccccc1)([c]1ccccc1)[c]1ccccc1,Potency,[7],"inconclusive: 38.9 µM [activator, single point]"
same,Potency,[8],active: 8.14 µM
same,Potency,[4],active: 16.2 µM
same,Potency,[5],"inconclusive: 1.82 µM [rising, partial curve]"
same,Potency,[12],"inconclusive: 4.21 µM [inhibitor, full curve]"
same,Potency,[11],"inconclusive: 6.11 µM [rising, full curve]"
same,Potency,[13],"inconclusive: 3.59 µM [rising, partial curve]"
same,Potency,[14],"inconclusive: 68.6 µM [inhibitor, single point]"
same,Potency,[6],inconclusive: 77 µM [inhibitor]
same,Potency,[15],active: 4.33 µM
Brc1ccc(Br)cc1,Potency,[1],inactive
same,activation,[2],inconclusive: 15.3%
same,Potency,[8],"inconclusive: 51.3 µM [cytotoxic, partial curve, poor fit]"
same,Potency,[5],inactive
same,Potency,[13],inactive
same,activation,[6],inconclusive: -16.5% and inconclusive: 2.18%
COc1ccc([N+](=O)[O-])cc1O,Potency,[1],"inconclusive: 22.3 µM [activator, single point]"
O=C1C2CC=CCC2C(=O)N1SC(Cl)(Cl)Cl (stereo not given),Potency,[7],"inconclusive: 42.9 µM [activator, single point]"
same,activation,[2],inconclusive: 19.8%
same,Potency,[3],"inconclusive: 8.98 µM [cytotoxic, full curve, poor fit]"
same,Potency,[8],"inconclusive: 50.5 µM [cytotoxic, single point]"
same,activation,[5],inconclusive: -6.14%
same,Potency,[16],"inactive and inconclusive: 36.9 µM [inhibitor, partial curve, poor fit]"
same,Potency,[9],inconclusive: 48.8 µM [activator]
same,Potency,[13],inconclusive: 53.6 µM [partial curve]
same,"activity change, negative = inhibition",[14],inconclusive: -52%
same,Potency,[6],inactive and inconclusive: 75.7 µM [inhibitor]
COP(N)(=S)Oc1ccccc1C(=O)OC(C)C (stereo not given),Potency,[1],active: 18.2 µM
same,Potency,[2],"inconclusive: 5.76 µM [fluorescent, partial curve]"
same,Potency,[3],inactive
same,"activity change, negative = inhibition",[13],inconclusive: 10.9%
CCCCCCCCCCCOC(=O)c1ccccc1C(=O)OCCCCCCCCCCC,Potency,[7],inactive
same,Potency,[8],"inconclusive: 0.0793 µM [cytotoxic, single point]"
same,Potency,[12],inconclusive: 0.0012 µM [inhibitor]
same,Potency,[11],inactive
same,activation,[6],inconclusive: 2.47%
COP(=O)(OC)C(O)C(Cl)(Cl)Cl (stereo not given),Potency,[1],"active: 1.46 µM and inconclusive: 363 nM [fluorescent, full curve] and inconclusive: 397 nM [fluorescent, full curve]"
same,Potency,[2],"inconclusive: 462 nM [fluorescent, full curve] and inconclusive: 204 nM [fluorescent, full curve] and inconclusive: 1.41 µM [fluorescent, full curve]"
same,Potency,[4],"inconclusive: 4.12 µM [cytotoxic, single point]"
same,Potency,[5],"inconclusive: 32.7 µM [falling, partial curve, poor fit] and inconclusive: 20.4 µM [falling, partial curve, poor fit]"
same,Potency,[16],"inactive and active: 8.39 µM and inconclusive: 163 nM [inhibitor, single point]"
same,Potency,[14],inactive
CCOCn1c(-c2ccc(Cl)cc2)c(C#N)c(Br)c1C(F)(F)F,Potency,[7],"inconclusive: 3.09 µM [activator, full curve, poor fit]"
same,Potency,[3],active: 22.9 µM
same,Potency,[8],active: 22.9 µM
same,Potency,[4],active: 10.2 µM
same,Potency,[11],"inconclusive: 4.33 µM [rising, full curve]"
same,Potency,[13],inconclusive: 7.7 µM [fluorescent]
same,Potency,[14],"inconclusive: 4.86 µM [inhibitor, full curve]"
same,Potency,[6],"inconclusive: 3.06 µM [inhibitor, full curve]"

# Reprinted at random: three records from the list, in no set order.
smiles,measurement,setting,value
Brc1ccc(Br)cc1,Potency,[8],"inconclusive: 51.3 µM [cytotoxic, partial curve, poor fit]"
Cc1cc(OC(=O)N(C)C)nn1C(=O)N(C)C,Potency,[2],"inconclusive: 7.25 µM [fluorescent, partial curve]"
COP(=O)(OC)OC,Potency,[10],active: 49.4 µM
